Assay results reported in the supplement of paper PMC10849652.
Some of the results follow.

The chains behind the UniProt entries cited, without tags or fusion partners. Where a name states a change or a piece, a line headed by the entry shows the natural chain unless it says otherwise.
UniProt P23276: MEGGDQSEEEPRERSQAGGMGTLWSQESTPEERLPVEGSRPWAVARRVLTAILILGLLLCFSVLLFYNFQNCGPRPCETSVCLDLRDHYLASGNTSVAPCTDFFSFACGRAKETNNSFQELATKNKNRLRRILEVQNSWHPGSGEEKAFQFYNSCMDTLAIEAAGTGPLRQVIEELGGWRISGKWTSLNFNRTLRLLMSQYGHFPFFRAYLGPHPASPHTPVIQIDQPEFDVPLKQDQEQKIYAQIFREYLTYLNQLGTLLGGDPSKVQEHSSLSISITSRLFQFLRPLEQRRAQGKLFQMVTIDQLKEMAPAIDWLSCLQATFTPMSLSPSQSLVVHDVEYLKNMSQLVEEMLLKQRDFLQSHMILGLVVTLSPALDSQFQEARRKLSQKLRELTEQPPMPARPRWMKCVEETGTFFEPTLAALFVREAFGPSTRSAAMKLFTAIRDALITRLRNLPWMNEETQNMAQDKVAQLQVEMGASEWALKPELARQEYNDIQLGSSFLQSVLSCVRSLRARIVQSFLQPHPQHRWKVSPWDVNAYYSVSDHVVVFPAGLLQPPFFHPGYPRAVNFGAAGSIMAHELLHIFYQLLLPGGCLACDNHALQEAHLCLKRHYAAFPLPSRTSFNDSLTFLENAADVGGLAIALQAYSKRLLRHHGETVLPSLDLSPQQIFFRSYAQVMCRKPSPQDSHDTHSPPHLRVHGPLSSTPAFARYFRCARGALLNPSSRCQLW
UniProt Q15058: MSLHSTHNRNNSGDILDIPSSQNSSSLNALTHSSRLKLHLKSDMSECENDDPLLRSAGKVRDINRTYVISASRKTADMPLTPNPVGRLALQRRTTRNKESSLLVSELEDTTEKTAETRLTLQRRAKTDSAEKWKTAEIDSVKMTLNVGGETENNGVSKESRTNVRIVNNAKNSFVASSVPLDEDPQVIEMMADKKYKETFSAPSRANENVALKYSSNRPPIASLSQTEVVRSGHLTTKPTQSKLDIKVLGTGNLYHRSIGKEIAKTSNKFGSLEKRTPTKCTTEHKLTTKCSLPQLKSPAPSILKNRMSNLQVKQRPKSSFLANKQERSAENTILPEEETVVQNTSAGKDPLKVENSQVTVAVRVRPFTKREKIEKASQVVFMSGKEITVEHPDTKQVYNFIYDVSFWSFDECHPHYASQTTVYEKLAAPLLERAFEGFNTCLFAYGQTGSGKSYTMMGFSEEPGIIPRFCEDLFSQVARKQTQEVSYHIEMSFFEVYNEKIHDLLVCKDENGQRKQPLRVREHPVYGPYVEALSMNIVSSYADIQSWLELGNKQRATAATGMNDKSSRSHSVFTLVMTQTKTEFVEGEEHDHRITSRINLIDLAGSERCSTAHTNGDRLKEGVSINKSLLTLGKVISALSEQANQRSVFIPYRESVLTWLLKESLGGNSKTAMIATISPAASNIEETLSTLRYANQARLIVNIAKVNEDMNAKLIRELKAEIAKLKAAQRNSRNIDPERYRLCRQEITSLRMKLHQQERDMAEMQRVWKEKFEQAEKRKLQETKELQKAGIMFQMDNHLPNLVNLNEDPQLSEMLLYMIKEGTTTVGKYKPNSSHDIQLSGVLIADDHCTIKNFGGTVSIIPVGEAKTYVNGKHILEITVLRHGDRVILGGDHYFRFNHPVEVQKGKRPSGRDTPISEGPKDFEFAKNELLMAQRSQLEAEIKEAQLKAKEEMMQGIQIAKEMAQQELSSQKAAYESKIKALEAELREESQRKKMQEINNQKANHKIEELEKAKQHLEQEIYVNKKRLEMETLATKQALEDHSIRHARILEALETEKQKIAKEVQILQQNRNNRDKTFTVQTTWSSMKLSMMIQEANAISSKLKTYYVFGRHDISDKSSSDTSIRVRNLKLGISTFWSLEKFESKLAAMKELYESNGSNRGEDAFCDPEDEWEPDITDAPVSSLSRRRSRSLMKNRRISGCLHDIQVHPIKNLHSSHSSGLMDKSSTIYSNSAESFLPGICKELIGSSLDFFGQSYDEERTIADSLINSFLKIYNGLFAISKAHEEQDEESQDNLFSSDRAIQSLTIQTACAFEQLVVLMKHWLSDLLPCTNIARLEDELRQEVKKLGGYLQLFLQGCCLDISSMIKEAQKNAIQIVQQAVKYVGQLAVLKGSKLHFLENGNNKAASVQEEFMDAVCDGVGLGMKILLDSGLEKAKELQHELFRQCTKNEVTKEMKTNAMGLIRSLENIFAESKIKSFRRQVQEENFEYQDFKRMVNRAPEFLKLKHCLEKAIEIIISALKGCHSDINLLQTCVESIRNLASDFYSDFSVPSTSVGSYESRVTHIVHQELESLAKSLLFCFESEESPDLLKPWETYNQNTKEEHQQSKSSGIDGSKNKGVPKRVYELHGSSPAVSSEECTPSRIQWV
UniProt Q92615, whole entry, looked up: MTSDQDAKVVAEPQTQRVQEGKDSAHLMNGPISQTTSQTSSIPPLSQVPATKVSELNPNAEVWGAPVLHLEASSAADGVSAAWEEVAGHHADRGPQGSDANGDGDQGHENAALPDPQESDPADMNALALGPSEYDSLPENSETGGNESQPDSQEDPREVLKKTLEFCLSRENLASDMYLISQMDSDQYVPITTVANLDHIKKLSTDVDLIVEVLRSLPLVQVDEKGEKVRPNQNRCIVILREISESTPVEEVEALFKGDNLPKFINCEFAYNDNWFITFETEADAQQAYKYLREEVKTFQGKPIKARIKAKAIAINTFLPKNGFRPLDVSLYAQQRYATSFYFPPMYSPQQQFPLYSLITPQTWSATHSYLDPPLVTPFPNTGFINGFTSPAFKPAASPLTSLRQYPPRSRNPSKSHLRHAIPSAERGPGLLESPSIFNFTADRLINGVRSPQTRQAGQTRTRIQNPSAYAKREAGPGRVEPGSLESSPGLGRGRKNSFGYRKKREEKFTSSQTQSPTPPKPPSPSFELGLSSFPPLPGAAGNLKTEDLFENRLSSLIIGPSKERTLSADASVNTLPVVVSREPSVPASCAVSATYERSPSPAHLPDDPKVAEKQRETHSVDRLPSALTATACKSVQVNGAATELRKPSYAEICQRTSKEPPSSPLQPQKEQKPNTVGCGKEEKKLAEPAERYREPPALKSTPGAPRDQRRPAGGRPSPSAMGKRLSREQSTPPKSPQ
UniProt O60870: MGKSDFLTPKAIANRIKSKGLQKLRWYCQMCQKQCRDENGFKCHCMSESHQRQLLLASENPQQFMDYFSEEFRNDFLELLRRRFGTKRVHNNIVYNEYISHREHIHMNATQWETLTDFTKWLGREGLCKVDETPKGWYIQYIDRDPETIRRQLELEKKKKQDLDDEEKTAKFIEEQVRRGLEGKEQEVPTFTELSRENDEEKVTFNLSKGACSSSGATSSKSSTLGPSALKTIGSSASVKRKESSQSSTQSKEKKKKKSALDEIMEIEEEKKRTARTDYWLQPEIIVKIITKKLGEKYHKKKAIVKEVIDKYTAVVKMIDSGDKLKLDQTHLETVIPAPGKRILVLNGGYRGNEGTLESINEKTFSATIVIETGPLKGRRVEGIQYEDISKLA
UniProt Q8NA19: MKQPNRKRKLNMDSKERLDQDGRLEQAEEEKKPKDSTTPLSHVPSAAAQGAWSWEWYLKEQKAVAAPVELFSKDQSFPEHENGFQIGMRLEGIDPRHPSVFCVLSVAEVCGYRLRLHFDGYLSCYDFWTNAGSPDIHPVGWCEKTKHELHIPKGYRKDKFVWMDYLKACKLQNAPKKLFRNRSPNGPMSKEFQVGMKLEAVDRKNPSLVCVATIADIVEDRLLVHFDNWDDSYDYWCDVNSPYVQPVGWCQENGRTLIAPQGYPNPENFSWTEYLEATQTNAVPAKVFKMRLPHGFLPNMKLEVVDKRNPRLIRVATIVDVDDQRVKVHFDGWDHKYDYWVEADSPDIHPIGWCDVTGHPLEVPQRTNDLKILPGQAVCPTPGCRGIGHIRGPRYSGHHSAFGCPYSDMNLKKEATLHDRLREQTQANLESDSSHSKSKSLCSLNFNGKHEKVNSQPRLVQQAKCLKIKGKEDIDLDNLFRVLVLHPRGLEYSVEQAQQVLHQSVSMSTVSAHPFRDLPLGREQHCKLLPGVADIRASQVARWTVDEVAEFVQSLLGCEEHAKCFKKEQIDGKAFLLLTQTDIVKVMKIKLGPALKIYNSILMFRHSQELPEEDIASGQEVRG
UniProt P41229: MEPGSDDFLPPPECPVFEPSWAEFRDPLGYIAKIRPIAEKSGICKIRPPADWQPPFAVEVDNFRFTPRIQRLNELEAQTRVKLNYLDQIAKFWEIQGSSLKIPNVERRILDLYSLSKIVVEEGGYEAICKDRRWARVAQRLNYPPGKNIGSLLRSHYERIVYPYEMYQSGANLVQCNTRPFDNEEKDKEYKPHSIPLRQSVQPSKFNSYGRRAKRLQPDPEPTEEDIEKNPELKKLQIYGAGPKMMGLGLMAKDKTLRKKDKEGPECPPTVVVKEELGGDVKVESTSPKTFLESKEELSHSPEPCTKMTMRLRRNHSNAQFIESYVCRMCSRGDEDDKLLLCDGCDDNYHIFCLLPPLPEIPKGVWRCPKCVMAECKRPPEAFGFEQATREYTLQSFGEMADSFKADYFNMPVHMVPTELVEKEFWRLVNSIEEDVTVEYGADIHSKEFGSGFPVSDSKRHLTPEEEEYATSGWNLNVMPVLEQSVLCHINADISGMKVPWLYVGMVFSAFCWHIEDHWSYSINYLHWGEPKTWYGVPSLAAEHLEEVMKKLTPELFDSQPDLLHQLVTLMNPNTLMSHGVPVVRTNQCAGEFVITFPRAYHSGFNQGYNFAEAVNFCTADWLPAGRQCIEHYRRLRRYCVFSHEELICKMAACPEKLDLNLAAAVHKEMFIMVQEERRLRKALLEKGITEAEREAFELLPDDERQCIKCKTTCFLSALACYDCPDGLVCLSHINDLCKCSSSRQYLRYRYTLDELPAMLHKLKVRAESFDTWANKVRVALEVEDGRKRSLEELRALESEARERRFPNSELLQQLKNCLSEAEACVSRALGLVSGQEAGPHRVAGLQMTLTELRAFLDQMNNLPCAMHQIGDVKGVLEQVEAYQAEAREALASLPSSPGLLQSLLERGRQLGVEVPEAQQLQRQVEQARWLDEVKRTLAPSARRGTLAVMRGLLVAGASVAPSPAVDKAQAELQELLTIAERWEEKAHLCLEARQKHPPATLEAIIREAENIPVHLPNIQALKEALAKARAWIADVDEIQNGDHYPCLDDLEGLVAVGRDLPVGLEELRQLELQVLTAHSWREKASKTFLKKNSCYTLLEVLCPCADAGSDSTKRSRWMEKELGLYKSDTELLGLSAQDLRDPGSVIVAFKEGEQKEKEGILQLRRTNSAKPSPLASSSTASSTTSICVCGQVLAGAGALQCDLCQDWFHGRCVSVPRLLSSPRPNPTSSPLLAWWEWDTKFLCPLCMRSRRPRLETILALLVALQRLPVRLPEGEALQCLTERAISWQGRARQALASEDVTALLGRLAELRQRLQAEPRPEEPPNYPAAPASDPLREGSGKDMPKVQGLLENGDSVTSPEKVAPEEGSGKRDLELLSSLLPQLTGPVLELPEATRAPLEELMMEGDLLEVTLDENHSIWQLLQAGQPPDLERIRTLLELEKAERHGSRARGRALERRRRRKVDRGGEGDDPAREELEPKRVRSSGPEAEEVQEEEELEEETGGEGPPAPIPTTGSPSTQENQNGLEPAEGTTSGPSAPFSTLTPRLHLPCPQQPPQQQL
UniProt Q14657: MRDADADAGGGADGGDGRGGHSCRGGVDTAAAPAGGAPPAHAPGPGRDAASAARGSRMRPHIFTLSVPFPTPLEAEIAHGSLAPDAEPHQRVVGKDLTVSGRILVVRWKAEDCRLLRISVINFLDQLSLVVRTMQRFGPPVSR
UniProt Q53HC5: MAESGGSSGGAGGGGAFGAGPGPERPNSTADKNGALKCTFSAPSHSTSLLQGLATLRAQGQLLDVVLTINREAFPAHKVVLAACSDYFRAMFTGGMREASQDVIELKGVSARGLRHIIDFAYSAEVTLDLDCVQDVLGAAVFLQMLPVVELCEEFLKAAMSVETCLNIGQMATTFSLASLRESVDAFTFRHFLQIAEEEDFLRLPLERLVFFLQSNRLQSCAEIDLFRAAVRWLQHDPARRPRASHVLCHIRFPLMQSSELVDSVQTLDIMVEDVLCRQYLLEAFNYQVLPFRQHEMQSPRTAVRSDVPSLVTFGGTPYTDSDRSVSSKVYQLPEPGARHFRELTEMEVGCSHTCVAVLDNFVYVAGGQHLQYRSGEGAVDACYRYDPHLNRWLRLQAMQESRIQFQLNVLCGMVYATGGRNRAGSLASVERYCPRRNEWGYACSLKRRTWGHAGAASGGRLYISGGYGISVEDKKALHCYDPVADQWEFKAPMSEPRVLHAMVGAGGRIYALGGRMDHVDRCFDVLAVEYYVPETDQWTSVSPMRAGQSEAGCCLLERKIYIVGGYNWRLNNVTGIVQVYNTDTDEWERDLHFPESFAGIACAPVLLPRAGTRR

Tests used:
Assay in all cases: log2 fold change, soluble protein after heating vs DMSO (PISA); higher = thermal stabilisation; K562 lysate, 10 uM; active = over 0.2 and 3.5 SD of the protein, either way, in both replicates (recomputed)
lapatinib = compound: CS(=O)(=O)CCNCc1ccc(-c2ccc3ncnc(Nc4ccc(OCc5cccc(F)c5)c(Cl)c4)c3c2)o1 [lapatinib]
Outline: (§1)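 To prepare the extract, K562 pellets were dounce-homogenised in PBS pH 7.4 with 1 mM MgCl2, giving crude material at 1 mg/mL protein. This was treated with 10 μM compound for 30 min, then heated in aliquots for 3 min over 48°C-58°C before pooling and addition of NP-40 to 0.5% at 4°C. Centrifugation at 21,000xg for 90 min left soluble protein in the supernatant, which TMTpro 16plex LC-MS/MS quantified with equalised channel sums. Results are log-two fold changes in thermal stability compared with solvent controls, from duplicates.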

pictilisib = compound: CS(=O)(=O)N1CCN(Cc2cc3nc(-c4cccc5[nH]ncc45)nc(N4CCOCC4)c3s2)CC1 [pictilisib]
Outline: as §1

crizotinib = compound: C[C@@H](Oc1cc(-c2cnn(C3CCNCC3)c2)cnc1N)c1c(Cl)ccc(F)c1Cl [crizotinib]
Outline: as §1

[1] = compound: C[C@H](C1=CC=C(C=C1)C(=O)NC2=C3C=CNC3=NC=C2)N
Outline: as §1

duvelisib = compound: C[C@H](Nc1ncnc2nc[nH]c12)c1cc2cccc(Cl)c2c(=O)n1-c1ccccc1 [duvelisib]
Outline: as §1

gandotinib = compound: Cc1cc(Nc2cc(CN3CCOCC3)c3nc(C)c(Cc4ccc(Cl)cc4F)n3n2)n[nH]1 [gandotinib]
Outline: as §1

tozasertib = compound: Cc1cc(Nc2cc(N3CCN(C)CC3)nc(Sc3ccc(NC(=O)C4CC4)cc3)n2)n[nH]1 [tozasertib]
Outline: as §1

doramapimod = compound: Cc1ccc(-n2nc(C(C)(C)C)cc2NC(=O)Nc2ccc(OCCN3CCOCC3)c3ccccc23)cc1 [doramapimod]
Outline: as §1

bafetinib = compound: Cc1ccc(NC(=O)c2ccc(CN3CC[C@H](N(C)C)C3)c(C(F)(F)F)c2)cc1Nc1nccc(-c2cncnc2)n1 [bafetinib]
Outline: as §1

[2] = compound: Cc1cccc(CC(=O)N2CCc3c2ccc(-c2cn(C)c4ncnc(N)c24)c3F)n1
Outline: as §1

| Target | log2 fold change (lapatinib) | log2 fold change (pictilisib) | log2 fold change (crizotinib) | log2 fold change [1] | log2 fold change (duvelisib) | log2 fold change (gandotinib) | log2 fold change (tozasertib) | log2 fold change (doramapimod) | log2 fold change (bafetinib) | log2 fold change [2] |
| --- | --- | --- | --- | --- | --- | --- | --- | --- | --- | --- |
| KHDC4 (UniProt Q7Z7F0) | inactive: -0.025 | inactive: -0.04 | inactive: 0.01 | inactive: 0.035 | inactive: -0.028 | inactive: -0.018 | inactive: -0.068 | inactive: 0.024 | inactive: 0.032 | inactive: -0.009 |
| KIFBP (UniProt Q96EK5) | inactive: 0 | inactive: -0.029 | inactive: -0.007 | inactive: -0.001 | inactive: -0.005 | inactive: -0.096 | inactive: 0.005 | inactive: -0.005 | inactive: -0.02 | inactive: 0.002 |
| KLC1 isoform 6 (UniProt Q07866) | inactive: -0.011 | inactive: -0.001 | inactive: 0 | inactive: -0.009 | inactive: -0.031 | inactive: -0.073 | inactive: -0.004 | inactive: 0.026 | inactive: -0.008 | inactive: 0.005 |
| KEL (UniProt P23276) | inactive: -0.019 | inactive: -0.034 | inactive: 0.003 | inactive: 0.03 | inactive: 0.003 | inactive: -0.002 | inactive: -0.025 | inactive: -0.031 | inactive: -0.12 | inactive: -0.03 |
| KIF14 (UniProt Q15058) | inactive: 0.016 | inactive: -0.277 | inactive: -0.053 | inactive: -0.082 | inactive: 0.025 | inactive: -0.011 | inactive: 0.002 | inactive: 0.046 | inactive: -0.087 | inactive: 0.042 |
| L3HYPDH (UniProt Q96EM0) | inactive: -0.019 | inactive: -0.032 | inactive: -0.028 | inactive: -0.045 | inactive: -0.014 | inactive: 0.018 | inactive: -0.002 | inactive: 0.036 | inactive: -0.018 | inactive: -0.048 |
| KIF13B (UniProt Q9NQT8) | inactive: -0.029 | inactive: 0.023 | inactive: -0.024 | inactive: -0.021 | inactive: -0.021 | inactive: 0.007 | inactive: -0.014 | inactive: 0.025 | inactive: 0.011 | inactive: -0.011 |
| KMT2D isoform 3 (UniProt O14686) | inactive: -0.014 | inactive: -0.012 | inactive: 0.002 | inactive: 0.015 | inactive: 0.034 | inactive: -0.036 | inactive: 0.03 | inactive: 0.009 | inactive: -0.002 | inactive: 0.013 |
| KPNB1 (UniProt Q14974) | inactive: -0.028 | inactive: -0.012 | inactive: -0.021 | inactive: 0.009 | inactive: 0.04 | inactive: -0.042 | inactive: -0.021 | inactive: -0.005 | inactive: -0.014 | inactive: -0.005 |
| LARP4B (UniProt Q92615) | inactive: 0.01 | inactive: 0.016 | inactive: -0.019 | inactive: -0.051 | inactive: -0.033 | inactive: 0.029 | inactive: -0.009 | inactive: -0.044 | inactive: -0.047 | inactive: 0.096 |
| KIN (UniProt O60870) | inactive: 0 | inactive: -0.004 | inactive: -0.083 | inactive: -0.004 | inactive: -0.008 | inactive: -0.032 | inactive: -0.011 | inactive: 0.017 | inactive: -0.045 | inactive: 0.04 |
| KIF18B (UniProt Q86Y91) | inactive: -0.024 | – | inactive: -0.008 | – | inactive: 0.068 | – | inactive: -0.161 | inactive: 0.077 | – | – |
| KLHL7 isoform 3 (UniProt Q8IXQ5) | inactive: 0.054 | – | inactive: -0.07 | inactive: -0.096 | – | inactive: 0.059 | inactive: 0.009 | inactive: 0.039 | – | inactive: -0.289 |
| KIF21B (UniProt O75037) | inactive: -0.092 | inactive: 0.102 | inactive: -0.215 | inactive: -0.441 | inactive: -0.001 | inactive: -0.203 | inactive: -0.085 | inactive: 0.146 | inactive: -0.239 | inactive: 0.029 |
| KIF20A (UniProt O95235) | – | inactive: -0.219 | inactive: -0.119 | inactive: -0.031 | inactive: 0.008 | inactive: 0.109 | inactive: 0.041 | inactive: 0.06 | inactive: -0.223 | inactive: 0.116 |
| L3MBTL4 (UniProt Q8NA19) | inactive: -0.105 | inactive: -0.061 | inactive: -0.156 | inactive: -0.081 | – | inactive: 0.063 | inactive: -0.089 | inactive: 0.005 | inactive: 0.007 | inactive: 0.094 |
| LAMA2 (UniProt P24043) | inactive: 0.016 | inactive: 0.069 | – | inactive: -0.22 | – | inactive: 0.27 | inactive: -0.021 | – | inactive: 0.092 | inactive: 0.212 |

| Target | log2 fold change (lapatinib) | log2 fold change (pictilisib) | log2 fold change (crizotinib) | log2 fold change [1] | log2 fold change (duvelisib) | log2 fold change (gandotinib) | log2 fold change (tozasertib) | log2 fold change (doramapimod) | log2 fold change (bafetinib) | log2 fold change [2] |
| --- | --- | --- | --- | --- | --- | --- | --- | --- | --- | --- |
| KTN1 (UniProt Q86UP2) | inactive: -0.01 | inactive: -0.02 | inactive: 0.008 | inactive: -0.011 | inactive: 0.001 | inactive: -0.036 | inactive: 0.012 | inactive: -0.013 | inactive: -0.008 | inactive: 0.024 |
| KIF4B (UniProt Q2VIQ3) | inactive: 0.03 | inactive: -0.001 | inactive: -0.02 | inactive: 0.029 | inactive: -0.023 | inactive: -0.051 | inactive: -0.033 | inactive: 0.015 | inactive: -0.04 | inactive: 0.035 |
| KLHL42 (UniProt Q9P2K6) | inactive: -0.095 | inactive: -0.005 | inactive: 0.08 | inactive: 0.073 | inactive: -0.031 | inactive: -0.027 | – | inactive: -0.109 | inactive: 0.11 | inactive: -0.066 |
| KIF1C (UniProt O43896) | inactive: 0.029 | inactive: 0.022 | inactive: -0.132 | inactive: -0.197 | – | inactive: 0.022 | inactive: -0.154 | inactive: 0 | inactive: 0.007 | inactive: 0.168 |
| KEAP1 (UniProt Q14145) | inactive: -0.005 | inactive: -0.023 | inactive: -0.007 | inactive: 0 | inactive: 0.026 | inactive: 0.019 | inactive: -0.017 | inactive: 0.01 | inactive: 0 | inactive: 0.008 |
| KYAT1 (UniProt Q16773) | inactive: -0.024 | inactive: -0.002 | inactive: -0.028 | inactive: -0.083 | inactive: 0.036 | inactive: 0.065 | inactive: -0.019 | inactive: -0.019 | inactive: -0.03 | inactive: 0.025 |
| KIF21A (UniProt H0YI78) | inactive: -0.11 | inactive: 0.052 | – | – | inactive: -0.013 | – | – | – | inactive: 0.187 | – |
| KIF3C (UniProt O14782) | inactive: -0.172 | – | inactive: -0.177 | inactive: -0.119 | inactive: 0 | inactive: -0.002 | inactive: -0.394 | inactive: -0.031 | – | inactive: 0.152 |
| KDM5C (UniProt P41229) | inactive: -0.085 | inactive: -0.071 | inactive: -0.043 | inactive: 0.034 | inactive: -0.001 | inactive: -0.135 | inactive: 0.016 | inactive: 0.04 | inactive: -0.061 | inactive: 0.001 |
| LAGE3 (UniProt Q14657) | inactive: 0.002 | inactive: -0.032 | inactive: -0.014 | inactive: 0.04 | inactive: -0.12 | inactive: -0.013 | inactive: 0.043 | inactive: 0.009 | inactive: 0.084 | inactive: 0.013 |
| LAMA5 (UniProt O15230) | – | inactive: -0.329 | inactive: -0.073 | inactive: 0.039 | inactive: -0.075 | inactive: 0.013 | inactive: -0.215 | inactive: 0.04 | inactive: 0.025 | inactive: 0.066 |
| KPNA4 (UniProt O00629) | inactive: 0.03 | inactive: 0.011 | inactive: -0.044 | active: -0.217 | inactive: 0.012 | inactive: 0.089 | inactive: -0.018 | inactive: 0.02 | inactive: 0.049 | inactive: 0.155 |
| KIF21A isoform 5 (UniProt Q7Z4S6) | inactive: -0.014 | inactive: -0.018 | inactive: -0.021 | inactive: 0.157 | inactive: -0.032 | inactive: -0.077 | inactive: 0.005 | inactive: 0.019 | inactive: -0.019 | inactive: -0.062 |
| KLHL7 (UniProt Q8IXQ5) | inactive: 0.055 | – | inactive: 0.058 | inactive: -0.052 | inactive: 0.037 | inactive: -0.064 | inactive: 0.058 | inactive: -0.075 | – | inactive: -0.067 |
| KLHL26 (UniProt Q53HC5) | inactive: 0.026 | – | inactive: -0.104 | inactive: -0.229 | inactive: 0.246 | inactive: 0.033 | – | inactive: 0.051 | – | inactive: -0.164 |
| KLC3 isoform 3 (UniProt Q6P597) | inactive: 0.075 | inactive: -0.006 | inactive: 0.025 | inactive: 0.112 | – | inactive: 0.083 | inactive: 0.09 | inactive: -0.01 | inactive: 0.546 | inactive: -0.078 |

Single records, from the list above. Order of values: log2 fold change (lapatinib) | log2 fold change (pictilisib) | log2 fold change (crizotinib) | log2 fold change [1] | log2 fold change (duvelisib) | log2 fold change (gandotinib) | log2 fold change (tozasertib) | log2 fold change (doramapimod) | log2 fold change (bafetinib) | log2 fold change [2]
KIF4B (UniProt Q2VIQ3) as listed: inactive: 0.03 | inactive: -0.001 | inactive: -0.02 | inactive: 0.029 | inactive: -0.023 | inactive: -0.051 | inactive: -0.033 | inactive: 0.015 | inactive: -0.04 | inactive: 0.035
KLHL42 (UniProt Q9P2K6) as listed: inactive: -0.095 | inactive: -0.005 | inactive: 0.08 | inactive: 0.073 | inactive: -0.031 | inactive: -0.027 | – | inactive: -0.109 | inactive: 0.11 | inactive: -0.066
